Results as given in PubChem BioAssay AID2685 (National Center for Advancing Translational Sciences (NCATS), 2010).
“And” between values parts separate entries of the source, which are not always exact repeats. Equal entries are not always repeated. The list shows a part of the results. Further columns of the screen follow, without active or inactive calls. Compounds called inactive in the main read-out are mostly missing here. Potencies come from curve fits of mixed quality, noted in brackets.

Test: qHTS Assay for Lipid Storage Modulators in Drosophila S3 Cells;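 as to cell number change: cells counted by Cell Tracker Red CMTPX staining in the red channel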
Details: BODIPY lipid droplet fluorescence, 18-24 h; for cell number change: measured here: cell count max response, cells fed with added oleic acid
How it was run: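 Drosophila S3 cells loaded with oleic acid (400 uM, as added) and compounds at several concentrations; lipid droplets imaged by 488-nm laser-scanning cytometry, 500–530 nm intensity and object ratio to cell channel. Percent activity normalized to 20 uM Triacsin C.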

[1] = measured here: cell number channel AC50, cells fed with added oleic acid
[2] = measured here: lipid fluorescence (Fed channel) AC50, cells fed with added oleic acid

| SMILES | cell number change | AC50 [1] | AC50 [2] |
| --- | --- | --- | --- |
| COc1ccc(S(=O)(=O)N2CCN3CCCC3C2)cc1 (configuration not stated) | 8.81% | – | – |
| CCCCn1cnc2c1c(=O)[nH]c(=O)n2CCCC | 47.8% | 25.9 µM [rising, single point] | – |
| O=C(Nc1ccc(OCC(=O)N2CCOCC2)cc1)c1ccccc1F | 5.65% | – | – |
| COc1cc(C)ccc1Oc1ncnc(N)c1[N+](=O)[O-] | 16.1% | – | – |
| C=CCn1c(SCC(=O)Nc2cc(C)ccc2OC)nnc1-c1ccco1 | 3.14% | – | 0.00517 µM [rising, full curve, poor fit] |
| COc1ccc(NC(=O)c2ccc(Cl)c(S(=O)(=O)NCC3CCCO3)c2)c(OC)c1 (configuration not stated) | -41.6% | 14.6 µM [falling, single point] | – |
| CCSc1nnc([C@H](Cc2ccccc2)NC(=O)OC(C)(C)C)o1 | 16.7% | – | 6.51 µM [falling, single point] |
| O=[N+]([O-])c1ccc(-c2nc(NCc3cccnc3)c3ccccc3n2)cc1 | -66.2% | 10.3 µM [falling, partial curve] | 9.2 µM [falling, partial curve] |
| Cn1nnc(NC(=O)c2ccco2)n1 | 81.2% | – | – |
| COc1cc2c(cc1NC(=O)CN1C(=O)NC3(CCc4ccccc43)C1=O)oc1ccccc12 (configuration not stated) | 30.7% | 3.26 µM [rising, full curve, poor fit] | 4.11 µM [rising, single point] |
| O=C(Nc1cccc(C(=O)O)c1)/C(=C\c1ccco1)NC(=O)c1ccc(Br)o1 | 4.35% | – | – |
| COc1ccc(NC(=O)CNS(=O)(=O)c2ccc(Cl)cc2)cc1 | -22.3% | – | 29.1 µM [falling, single point] |
| CCNC(=S)N1CCN(CC)CC1 | -1.58% | – | – |
| C=CCn1c(=O)/c(=C2/SC(C)=C(C)N2CC)s/c1=C1/C(=O)N(CC)C(=S)N1c1ccccc1 | 36.9% | 2.06 µM [rising, full curve] | 3.66 µM [rising, partial curve] |
| C=C(NC(C)=O)c1c(F)cccc1F | 7.34% | – | 3.26 µM [rising, partial curve] |
| O=c1c2cc(Br)ccc2nc(-c2ccc([N+](=O)[O-])cc2)n1O | -34% | – | – |
| CCN1C(=NCC(C)C)N[C@@H](c2cccc(F)c2)C(C(=O)OC)=C1C | -0.898% and 24.4% | – | 0.58 µM [falling, full curve] |
| O=C(c1ccc(CS(=O)(=O)c2c(Cl)cccc2Cl)o1)N1CCCC1 | 8.13% | – | 4.11 µM [rising, partial curve] |
| Cc1ccc(C(=O)C2CCNCC2)cc1 | -10.7% | – | – |
| O=C(Cc1ccc(F)cc1)N/N=C/c1ccccn1 | -2.09% | – | 0.164 µM [rising, full curve, poor fit] |
| CCC(C)c1ccc(OCC(=O)O)cc1 (configuration not stated) | -184% | 23.1 µM [falling, partial curve] | – |

| SMILES | cell number change | AC50 [1] | AC50 [2] |
| --- | --- | --- | --- |
| CSc1ncc(C(=O)Nc2cccc(S(N)(=O)=O)c2)n1-c1ccccc1 | 11.7% | – | 13 µM [rising, partial curve] |
| O=C(Nc1ccc(CN2CCS(=O)(=O)CC2)cc1)c1ccc(F)cc1 | -18.6% | 0.461 µM [falling, full curve, poor fit] | 0.82 µM [falling, full curve] |
| O=C(NCCc1ccccc1)c1cc(-c2ccc3c(c2)OCO3)on1 | 32.1% | – | – |
| CCOC(=O)c1c(NC(=O)Nc2ccccc2)sc(C)c1C | -15.9% | – | – |
| COc1cc(C(=O)N/N=C/c2cccc(Oc3ccccc3)c2)ccc1O | -4.95% | 0.82 µM [falling, partial curve] | 29.1 µM [falling, single point] |
| O=C(O)CC(CC(=O)O)c1ccsc1 | -3.39% | – | 1.16 µM [rising, single point] |
| Cc1ccc(CNC(=O)CSc2nccn(-c3ccc(C)c(F)c3)c2=O)cc1 | – | – | 18.4 µM [falling, partial curve] |
| CCNc1nc(NCC)n2c(SCC(=O)Nc3cc(Cl)ccc3OC)nnc2n1 | – | 0.731 µM [rising, single point] | 0.58 µM [rising, single point] |
| C/C(=N\NC(=O)c1c(C)nc2ccccn12)c1ccc(C(C)(C)C)cc1 | – | – | 0.731 µM [rising, full curve] |
| c1ccc(-c2nc(-n3nc4ccccc4n3)nc3ccccc23)cc1 | 6.01% | – | 1.84 µM [rising, full curve, poor fit] |
| CS(=O)(=O)N(Cc1ccc(C(=O)NN=C2CCCCCC2)cc1)c1ccccc1 | 17.5% | – | 16.4 µM [rising, single point] |
| O=C(Nc1ccccc1Cl)C1CCCN(S(=O)(=O)c2ccc(F)cc2)C1 (configuration not stated) | -16.5% | – | 4.61 µM [rising, partial curve] |
| COc1ccccc1C(=O)C1CCCN(C(=O)c2cnn(C(C)C)c2)C1 (configuration not stated) | 10.5% | – | 29.1 µM [rising, single point] |
| CN(C)c1ccc(CNc2ncc(Br)cc2Br)cc1 | 34.8% | 0.461 µM [rising, full curve, poor fit] | 4.61 µM [rising, single point] |
| CCCCn1c(=O)c(-c2ccccc2)c(O)c2ccccc21 | -9.68% | – | – |
| COc1ccc(N=C2SC(CC(=O)Nc3ccc(OC)cc3OC)C(=O)N2C)cc1 (configuration not stated) | 2.36% | – | 16.4 µM [rising, single point] |
| Cc1cc(C)n2nc3nc(N4CCCCC4)nc(-c4ccco4)c3c2n1 | – | 1.64 µM [rising, partial curve] | 0.206 µM [rising, full curve, poor fit] |
| CCOC(=O)c1ccc(NC(=O)c2nc(S(=O)(=O)Cc3ccccc3)ncc2Cl)cc1 | 48.4% | 6.51 µM [falling, single point] | 6.51 µM [falling, single point] |
| Cc1ccc(S(=O)(=O)N(CCCO)Cc2cc3c(C)ccc(C)c3[nH]c2=O)cc1 | 45.6% | 0.082 µM [rising, full curve] | 0.092 µM [rising, full curve, poor fit] |
| O=C(N/N=C/c1ccc(Cl)cc1Cl)c1cccc(F)c1 | -9.06% | – | 9.2 µM [rising, partial curve] |

Record cards (already shown). Order of values: cell number change	AC50 [1]	AC50 [2]
COc1ccc(NC(=O)c2ccc(Cl)c(S(=O)(=O)NCC3CCCO3)c2)c(OC)c1 (configuration not stated) reads -41.6%	14.6 µM [falling, single point]	–
O=C(N/N=C/c1ccc(Cl)cc1Cl)c1cccc(F)c1 reads -9.06%	–	9.2 µM [rising, partial curve]
